According to PubChem BioAssay AID493014 (National Center for Advancing Translational Sciences (NCATS), 2011):
The list shows a part of the results. The main result of the screen is listed elsewhere. These columns were measured beside it and carry no call. The list favours compounds with an active or inconclusive main result. The note in brackets gives the kind of curve behind each potency; many fits are weak.

Assay: qHTS Assay to Find Inhibitors of Chronic Active B-Cell Receptor Signaling
Settings: ABC-DLBCL IkBa-CBG/CBR reporter, luminescence ratio (green luciferase fused to IkBa over red control in TMD8 lymphoma cells), 4 h
In short: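 TMD8 ABC-DLBCL cells carrying doxycycline-inducible green luciferase fused to IkappaBalpha plus unfused red luciferase were exposed to compounds (up to 46 uM) for 4 hrs at 37C. Activity came from the overlap-corrected green/red luminescence ratio.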

[1] = measured here: CBR red luminescence, cell number
[2] = measured here: IkBa-CBG green luminescence

| SMILES | AC50 [1] | AC50 [2] |
| --- | --- | --- |
| Cc1nn(-c2ccccc2)c(Cl)c1C(=O)NCC(C)C | 3.26 µM [falling, partial curve, poor fit] |  |
| COc1cc(/C=N/NC(=O)c2ccc(O)cc2)ccc1OCC(=O)Nc1cccc([N+](=O)[O-])c1 | 5.62 µM [falling, full curve] |  |
| CC1=C(C(=O)OC(C)C)C(c2ccc(N(C)C)cc2)C2=C(CC(C)(C)CC2=O)N1 (stereo not given) | 16.4 µM [rising, single point] |  |
| C[C@@H]1CCC[C@H](C)N1NC(=O)c1ccc(Cl)c(S(N)(=O)=O)c1 | 5.8 µM [rising, full curve, poor fit] |  |
| Cc1ccc(C(=O)NCC(=O)OC(C)C(=O)Nc2ccc(N(C)C)cc2)cc1C (stereo not given) | 3.98 µM [rising, full curve, poor fit] |  |
| N#Cc1c(N)n(-c2ccccc2N)c2nc3ccccc3nc12 | 0.794 µM [rising, full curve] |  |
| O=C(Nc1nc2cc3c(cc2s1)OCO3)c1cccc(N2C(=O)CCC2=O)c1 | 3.55 µM [falling, partial curve, poor fit] |  |
| CCN(CC)S(=O)(=O)c1cccc(C(=O)OCC(=O)NC(C)c2ccccc2)c1 (stereo not given) | 10 µM [rising, partial curve, poor fit] |  |
| Clc1cccc2sc(N3CCN(c4ccccc4)CC3)nc12 | 2.91 µM [rising, full curve] |  |
| O=C(c1ccc(CNc2c(N3CCCC3)c(=O)c2=O)cc1)N1CC=C(c2ccccc2)CC1 | 35.5 µM [falling, single point] |  |
| CC(C)CC(NC(=O)C1CCC(C)CC1)C(=O)Nc1ccc2c(c1)OCCO2 (stereo not given) | 6.31 µM [rising, full curve, poor fit] |  |
| Cc1ccc(S(=O)(=O)Nc2ccc3c(c2)c2c(n3S(=O)(=O)c3ccc(C)cc3)CCCC2=O)cc1 | 32.6 µM [rising, single point] |  |
| COc1ccc(C(C)=O)cc1COc1ccc(Cl)c(C)c1 | 15.8 µM [rising, partial curve, poor fit] |  |
| Cc1cccc(C)c1N1CCN(C(=O)N2CCOCC2)CC1 | 5.01 µM [rising, full curve] |  |
| CCCCn1c(N)c(N(CCC(C)C)C(=O)C2CC(=O)N(c3cccc(SC)c3)C2)c(=O)[nH]c1=O (stereo not given) | 2.91 µM [rising, full curve, poor fit] |  |
| COc1cccc(OC)c1OCc1cc(C2C3CCCC=C3C(C#N)=C(N)C2(C#N)C#N)c(C)cc1C (stereo not given) | 5.01 µM [falling, full curve, poor fit] |  |
| NC(=O)C1(N2CCCCC2)CCN(C(=O)c2ccccc2)CC1 | 18.4 µM [falling, single point] |  |
| COCC(C)NC(=O)c1ccc(CN2CCc3ccccc3C2)cc1 (stereo not given) | 6.31 µM [rising, partial curve, poor fit] |  |
| COc1ccc(CCC(=O)Nc2nc(C)c(C(=O)N(C)C)s2)cc1 | 0.794 µM [rising, full curve, poor fit] |  |

Of the compounds above, 4 have a Cl atom:

| SMILES | AC50 [1] | AC50 [2] |
| --- | --- | --- |
| Cc1nn(-c2ccccc2)c(Cl)c1C(=O)NCC(C)C | 3.26 µM [falling, partial curve, poor fit] |  |
| C[C@@H]1CCC[C@H](C)N1NC(=O)c1ccc(Cl)c(S(N)(=O)=O)c1 | 5.8 µM [rising, full curve, poor fit] |  |
| Clc1cccc2sc(N3CCN(c4ccccc4)CC3)nc12 | 2.91 µM [rising, full curve] |  |
| COc1ccc(C(C)=O)cc1COc1ccc(Cl)c(C)c1 | 15.8 µM [rising, partial curve, poor fit] |  |

The results go on:

| SMILES | AC50 [1] | AC50 [2] |
| --- | --- | --- |
| O=C(c1cc(Br)c(Br)s1)N1CCc2ccccc2C1 | 0.291 µM [rising, full curve, poor fit] |  |
| CS(=O)(=O)c1ccc2nnn(OCC(=O)Nc3cccc(C#N)c3)c2c1 | 12.6 µM [falling, single point] |  |
| Cn1c(SCC(=O)N/N=C/c2ccc(O)c(O)c2)nc2ccccc21 | 10 µM [falling, partial curve, poor fit] |  |
| O=C(Nc1ccc(S(=O)(=O)N2CCC(C(=O)NC3CCCCC3)CC2)cc1)c1ccco1 | 8.2 µM [rising, partial curve, poor fit] |  |
| CSc1ccc(CN2CCc3c([nH]c4ccccc34)C2)cc1 | 4.47 µM [falling, partial curve] |  |
| CNC(=O)CN1C(=O)c2cccc3cccc1c23 | 23.1 µM [falling, partial curve, poor fit] | 25.9 µM [rising, partial curve, poor fit] |
| COc1ccc(-c2cc(C(=O)NCC(c3ccco3)N(C)C)c3ccccc3n2)cc1OC (stereo not given) | 6.51 µM [rising, single point] |  |
| COc1ccc(NC(=S)/N=C(\N)Nc2nc(C)c3ccccc3n2)cc1 | 10 µM [falling, partial curve, poor fit] |  |
| O=C(OCc1nc2ccccc2s1)C1CCN(C2=NS(=O)(=O)c3ccccc32)CC1 | 12.6 µM [rising, partial curve] |  |
| CC[C@]12c3[nH]c4cc(CCC(=O)N(C)C)ccc4c3CCN1C(=O)[C@@H](CC(=O)NCCc1ccccn1)C[C@@H]2C(=O)N1CCN(C(=O)C2CC2)CC1 | 6.51 µM [rising, single point] | 13 µM [falling, partial curve, poor fit] |
| COc1ccc(-c2cc(C(F)(F)F)nc(NC3CCCC3)n2)cc1OC | 7.94 µM [rising, partial curve] |  |
| O=C(NNS(=O)(=O)c1ccccc1)c1cc2cc3ccccc3nc2s1 | 4.47 µM [falling, full curve, poor fit] |  |
| O=C(Cn1cc(C(F)(F)F)ccc1=O)OCC(=O)c1ccc[nH]1 | 23.1 µM [rising, single point] |  |
| COc1ccc(CNS(=O)(=O)c2cc(-c3cc(C)no3)ccc2C(C)C)cc1 |  | 35.5 µM [falling, single point] |
| Cc1ccc(OCC(=O)c2cc(C)n(CC(F)(F)F)c2C)c([N+](=O)[O-])n1 |  | 25.1 µM [falling, single point] |
| CC1=Nc2ccccc2/C1=C\c1nc(-c2ccccc2)oc1O | 1.3 µM [rising, full curve, poor fit] |  |
| CC1(C)Cc2c(c(N3CCOCC3)nc3sc(C(=O)N4CCCCC4)c(N)c23)CO1 | 0.058 µM [rising, full curve, poor fit] |  |
| CC1CCCN(S(=O)(=O)Cc2ccc(Cl)cc2)C1 (stereo not given) | 13 µM [rising, partial curve, poor fit] |  |
| CC(/C=C/c1ccc2c(c1)OCO2)=N\NC(=O)c1ccccc1 | 20 µM [falling, partial curve] |  |
